Source: patent publication US20230093399A1, “METHODS FOR GENERATING PLURIPOTENT STEM CELL-DERIVED BROWN FAT CELLS” (AgeX Therapeutics, Inc., priority 2013, published 2023)
At least one compound was matched to its structure with a doubt left.

Tests used:
Assay type in all cases: cell-based, human
[1] = test system: cell line E3; assay: Differentiation of clonal hEP cell line E3 in HyStem beads, Illumina microarray gene expression
Procedure: (§1) Differentiation medium is high glucose DMEM (CellGro Cat. No. 15-013-CV) with Pyruvate, 1 mM (Gibco Cat. 11360), Pen:Strep 100U/ml:100 ug/ml (Gibco Cat. No. 504284), Glutamax 2 mM (Gibco Cat. No. 35050), Dexamethasone 0.1 uM (Sigma, St. Louis, Mo., Cat. No. D1756-100), L-Proline 0.35 mM (Sigma Cat. No. D49752), 2-phospho-L-Ascorbic Acid 0.17 mM (Sigma, Cat. No. 49792, Fluka), and ITS Premix (BD, Franklin Lakes, N.J., sterile Cat. No. 47743-628) with a final concentration 6.25 ug/ml insulin, 6.25 ug/ml transferrin, 6.25 ng/ml selenious acid, serum albumin 1.25 mg/ml, 5.35 ug/ml linoleic acid. In various differentiation conditions, the Differentiation medium is supplemented with various growth factors or other differentiation factors as described herein.
(§2) The Gelin-S® component (10 mg of thiol-modified gelatin (BioTime)) is dissolved in 1.0 ml of degassed deionized water to prepare a 1% w/v solution, and polyethylene glycol diacrylate (10 mg of PEGDA) is dissolved in 0.5 ml of degassed deionized water to prepare a 2% w/v solution. Then, HyStem (1 ml, 1% w/v) is mixed with Gelin-S (1 ml, 1% w/v) immediately before use. Pelleted cells are resuspended in the recently prepared HyStem:Gelin-S (1:1 v/v) mix described above. Upon the addition of the PEGDA cross-linker, the cell suspension, at a final concentration of 2.0×10^7 cells/ml is aliquoted (25 μl/aliquot) into six-well plates (Corning® 3516; VWR, PA, USA) after partial gelation. Following complete gelation (20 min), Differentiation Medium is added to each well. Plates were then placed in a humidified incubator at 37° C. with ambient O2 and 10% CO2, and the cells were fed three-times weekly. At the desired time point, hydrogel constructs were either fixed and processed for immunohistochemical analysis or lysed using RLT (Qiagen, CA, USA) with 1% beta-mercaptoethanol for total RNA to analyze transcript expression using quantitative real-time PCR (qRT-PCR) and/or whole-genome microarray.
(§3) Total RNA was extracted directly from cells growing in 6-well plates or 10 cm tissue culture dishes using Qiagen RNeasy mini kits according to the manufacturer's instructions. RNA concentrations were measured using a Beckman DU530 or Nanodrop spectrophotometer and RNA quality was determined by denaturing agarose gel electrophoresis or using an Agilent 2100 bioanalyzer. Whole-genome expression analysis was carried out using Illumina Human Ref-8v3 or Human HT-12 v4 BeadArrays, and RNA levels for certain genes were confirmed by qRT-PCR. For the Illumina BeadArrays, total RNA was linearly amplified and biotin-labeled using Illumina TotalPrep kits (Life Technologies, Temecula, Calif., USA), and cRNA was quality-controlled using an Agilent 2100 Bioanalyzer. The cRNA was hybridized to Illumina BeadChips, processed, and read using a BeadStation array reader according to the manufacturer's instructions (Illumina, San Diego, Calif., USA). Values of less than 120 relative fluorescence units (RFUs) were considered as nonspecific background signal.

[2] = test system: NP110SM cells; assay: Differentiation of clonal embryonic progenitor line NP110SM in HyStem beads, Illumina microarray gene expression
Procedure: as §1
as §2, with “HyStem-C (BioTime, Inc. Alameda, Calif.) is a matrix composed of thiol-modified gelatin and thiolated hyaluronan crosslinked in vivo or in vitro with (polyethylene glycol diacrylate (PEGDA). We observed that clonal human embryonic progenitor cell lines such as those described in the present invention, could be efficiently differentiated in high-density cultures of said crosslinked collagen and hyaluronate in the following manner. HyStem-C® (BioTime, CA, USA) is reconstituted following the manufacturer's instructions. Briefly, the HyStem component (10 mg of thiol-modified hyaluronan) is dissolved in 1.0 ml of degassed deionized water for approximately 20 min to prepare a 1% w/v solution. The Gelin-S®” for “The Gelin-S®”
as §3
(§4) The line NP110SM was then exposed to differentiation in the BAT cell differentiation protocols described herein. […]

[3] = test system: fBAT cells; assay: Differentiation of fBAT preadipocyte cells in HyStem beads, Illumina microarray gene expression
Procedure: as §1
as §2, with “HyStem-C (BioTime, Inc. Alameda, Calif.) is a matrix composed of thiol-modified gelatin and thiolated hyaluronan crosslinked in vivo or in vitro with (polyethylene glycol diacrylate (PEGDA). We observed that clonal human embryonic progenitor cell lines such as those described in the present invention, could be efficiently differentiated in high-density cultures of said crosslinked collagen and hyaluronate in the following manner. HyStem-C® (BioTime, CA, USA) is reconstituted following the manufacturer's instructions. Briefly, the HyStem component (10 mg of thiol-modified hyaluronan) is dissolved in 1.0 ml of degassed deionized water for approximately 20 min to prepare a 1% w/v solution. The Gelin-S®” for “The Gelin-S®”
as §3, §4

[4] = 14 days HyStem beads, 5.0 μM rosiglitazone, FIG. 15 lane 7
[5] = combination of 50 ng/ml BMP4 and 5.0 μM rosiglitazone, FIG. 15 lane 8
[6] = 14 days HyStem beads, 5.0 μM rosiglitazone, FIG. 15 lane 3
[7] = combination of 50 ng/ml BMP4 and 5.0 μM rosiglitazone, FIG. 15 lane 4

With `CN(CCOc1ccc(CC2SC(=O)NC2=O)cc1)c1ccccn1` (stereo not drawn) [rosiglitazone] the “levels of C19ORF80” value ([1]; E3, 100 ng/ml BMP7 together with 1.0 μM rosiglitazone) was “high levels of C19ORF80 though lower than 100 ng/ml of BMP7 alone”, the PCK1 transcript expression ([1]; E3, HyStem beads, 1.0 μM rosiglitazone in combination with 100 ng/ml BMP7) was “relatively high levels” and the ADIPOQ transcript expression ([1]; E3, HyStem beads, rosiglitazone with 10 ng/ml BMP4) was “similarly high”. The ADIPOQ transcript expression ([1]; E3, HyStem beads, rosiglitazone with 100 ng/ml BMP7) was “similarly high”, the CIDEA transcript expression ([1]; differentiated E3, presence of 1.0 μM rosiglitazone, FIG. 9) was “relatively high levels” and the THRSP expression ([1]; presence of 1.0 μM rosiglitazone, FIG. 7, cell line not restated) was “increased”. The ADIPOQ expression [2, 4] was “markedly up-regulated”, the C19ORF80 expression [2, 4] was “markedly up-regulated” and the UCP1 expression [2, 4] was “markedly up-regulated”. For the same compound, the ADIPOQ expression [2, 5] was “did not appear to further increase”, the C19ORF80 expression [2, 5] was “did not appear to further increase” and the UCP1 expression [2, 5] was “did not appear to further increase”. The ADIPOQ expression [3, 6] was “markedly up-regulated”, the C19ORF80 expression [3, 6] was “markedly up-regulated” and the UCP1 expression [3, 6] was “markedly up-regulated”. The ADIPOQ expression [3, 7] was “did not appear to further increase”, the C19ORF80 expression [3, 7] was “did not appear to further increase” and the UCP1 expression [3, 7] was “did not appear to further increase”.
